Data from patent US20170045513A1, “METHODS OF DIAGNOSING CELIAC DISEASE USING IP-10” (ImmusanT, Inc., priority 2014, published 2017).

Key:
Format in all cases: cell-based, human
gluten-reactive T cells [1] = experiment: 96-well plate whole blood cytokine release, IFNγ by MAGPIX multiplex bead assay; settings: n = 8, rank of mean % max among 17 peptide preparations
gluten-reactive T cells [2] = experiment: 96-well plate whole blood cytokine release, IP-10 by MAGPIX multiplex bead assay; settings: n = 10, rank of mean % max among 17 peptide preparations
gluten-reactive T cells [3] = experiment: Overnight IFNγ ELISpot assay with fresh PBMC; settings: n = 5, rank of mean % max among 17 peptide preparations
Procedure: HLA-DQ2.5-positive celiac disease subjects on gluten-free diet were used in this study. Blood was collected immediately before and 6 days after commencing 3-day oral gluten challenge. Whole blood or PBMCs were incubated with pools or single peptides derived from gluten or recall antigens. IFNγ and IP-10 levels were measured in plasma from the whole blood that was incubated in 96-well plates with peptides or peptide pools. Plasma cytokine/chemokine levels were measured by MAGPIX® multiplex bead assay (IFNγ and IP-10) or by ELISA (IFNγ and IP-10), and PBMC separated from the same blood sample were incubated in overnight IFNγ ELISpot assays.
Overnight IFNγ ELISpot assays (Human IFN-γ ELISpotPRO kit, transparent, ALP; Mabtech AB, #3420-2APT-10) were performed using PBMC freshly separated from heparinized blood diluted 1:1 in PBS with 2% fetal bovine serum (Stemcell Technologies #07905; Vancouver, BC, V5Z 1B3, Canada) overlaid on density gradient medium (Ficoll-Paque™ PLUS; GE Healthcare Lice Sciences #:17-1440-02) in SepMate™-50 tubes (Stemcell Technologies #15460). PBMC (8 million/mL) were resuspended in serum-free medium with gentamicin and phenol red (X-VIVO™15; Lonza, Walkersville Mass. 21793). PBMC (0.4 million/50 pt/well) and incubated with 50 μL 80% X-vivo15, 0.2% DMSO and 20% PBS in three triplicate wells (“medium only”), or with 50 μL PHA-L 20 μg/ml or peptide at 2× final concentration in 80% X-vivo15, 0.2% DMSO and 20% PBS. Peptide solutions to be added to individual ELISpot wells were prepared in 96-well U-bottom plates (60 pt/well) that were then sealed with adhesive ELISA plate cover slips before replacing the plastic lid and being frozen at −80° C. 96-well plates containing peptide solutions were thawed at room temperature for 10 min while being centrifuged at 300 g immediately prior to being added to ELISpot wells. Peptide pools and mitogen were assessed in triplicate wells, and individual peptides were assessed in duplicate wells. X-VIVO™15 (50 μL) was incubated with 80% X-vivo15, 0.2% DMSO and 20% PBS (50 μL) in triplicate wells (“no PBMC” control). A Zeiss automated ELISpot counter was used to determine spot forming units (SFU) per well (Zellnet Inc., Fort Lee, N J 07024). Laboratory staff were unaware of the arrangement of peptide solutions in ELISpot wells during assay setup and plate counting.

Substance	IFNγ WB MAGPIX (rank) (gluten-reactive T cells [1])	IP-10 WB MAGPIX (rank) (gluten-reactive T cells [2])	IFNγ ELISpot (rank) (gluten-reactive T cells [3])	IFNγ WB MAGPIX (rank) (gluten-reactive T cells [1]; listed as Peptide 2*)	IP-10 WB MAGPIX (rank) (gluten-reactive T cells [2]; listed as Peptide 2*)	IFNγ ELISpot (rank) (gluten-reactive T cells [3]; listed as Peptide 2*)
[pGlu]SGEGSFQPSQENPQ-NH2 [Peptide 9]	15	17	17			
[pGlu]QPFPQPEQPFPWQP-NH2 [Peptide 2, two preparations tested separately: CSBio (5 μM) and Pepscan re-synthesis (10 μg/mL)]	9	5	9	6	4	4
[pGlu]QPFPEQPEQIIPQQP-NH2 [Peptide 12]	16	14	15			
[pGlu]QPFPQPEQPTPIQPEQP-NH2 [Peptide 5]	11 (11)	11	7			
[pGlu]QPFPQPEQPFSQQ-NH2 [Peptide 7]	12	12 (12)	13			
[pGlu]QPFPQPEQPIPVQPEQS-NH2 [Peptide 4]	10	9	6			
[pGlu]PEQPIPEQPQPYPQQ-NH2 [Peptide 3]	2	2	2			
(pE)QPPFSEQEQPVLPQ-amide (N-terminal pyroglutamate; C-terminal amide) [Peptide 13]	13	13	16			
[pGlu]LQPFPQPELPYPQPQ-NH2 [Peptide 1]	3	3	10			
[pGlu]QPFPQPELPYPYPQ-NH2 [Peptide 16]	4	7	5			
[pGlu]PEQPEQPFPEQPQQ-NH2 [Peptide 11]	17	16	14			
[pGlu]PEQPFPEQPIPEQPQPYP-NH2 [Peptide 14]	1	1	1			
[pGlu]PQPYPEQPQPFPQQ-NH2 [Peptide 8]	8	8	3			
[pGlu]QPFPQPEQPFPLQPEQP-NH2 [Peptide 6]	5	6	8			
[pGlu]GQQGYYPTSPQQSG-NH2 [Peptide 10]	14	15	12			
[pGlu]QPYPQPELPYPQPQ-NH2 [Peptide 15]	7	10	11			

Non-standard residues stand in square brackets, D forms with d. pGlu = O=C1CC[C@@H](C(=O)O)N1
